Results are given in words; binding and its absence hold for the method and conditions named. Some results given as binding are weak or reduced against the parent protein; the word gives no strength. Where a sequence is shown, tags or fusion partners need not be part of it.
Key:
[1] = biological target: T1, a-agglutinin (Aga1 protein with disulfide-linked Aga2 protein) on the surface of α-factor-treated MATa cells (Saccharomyces cerevisiae) (UniProt P32781+P32323); test: whole-cell binding to strain CY1892 with or without 100 nM α-factor; bound protein released with 2% SDS; Western blot with anti-Xpress
[2] = biological target: T1, a-agglutinin (Aga1 protein with disulfide-linked Aga2 protein) on the surface of α-factor-treated MATa cells (Saccharomyces cerevisiae); test: summary of the whole-cell binding and ELISA-like assays of Example 3

Chains of the proteins cited; added tags and fusions are not shown. Lines headed by an entry give the natural chain unless they say otherwise; changes in a name come on top.
UniProt P32781: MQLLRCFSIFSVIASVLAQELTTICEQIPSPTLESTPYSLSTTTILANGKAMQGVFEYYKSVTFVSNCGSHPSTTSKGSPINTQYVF
UniProt P32323: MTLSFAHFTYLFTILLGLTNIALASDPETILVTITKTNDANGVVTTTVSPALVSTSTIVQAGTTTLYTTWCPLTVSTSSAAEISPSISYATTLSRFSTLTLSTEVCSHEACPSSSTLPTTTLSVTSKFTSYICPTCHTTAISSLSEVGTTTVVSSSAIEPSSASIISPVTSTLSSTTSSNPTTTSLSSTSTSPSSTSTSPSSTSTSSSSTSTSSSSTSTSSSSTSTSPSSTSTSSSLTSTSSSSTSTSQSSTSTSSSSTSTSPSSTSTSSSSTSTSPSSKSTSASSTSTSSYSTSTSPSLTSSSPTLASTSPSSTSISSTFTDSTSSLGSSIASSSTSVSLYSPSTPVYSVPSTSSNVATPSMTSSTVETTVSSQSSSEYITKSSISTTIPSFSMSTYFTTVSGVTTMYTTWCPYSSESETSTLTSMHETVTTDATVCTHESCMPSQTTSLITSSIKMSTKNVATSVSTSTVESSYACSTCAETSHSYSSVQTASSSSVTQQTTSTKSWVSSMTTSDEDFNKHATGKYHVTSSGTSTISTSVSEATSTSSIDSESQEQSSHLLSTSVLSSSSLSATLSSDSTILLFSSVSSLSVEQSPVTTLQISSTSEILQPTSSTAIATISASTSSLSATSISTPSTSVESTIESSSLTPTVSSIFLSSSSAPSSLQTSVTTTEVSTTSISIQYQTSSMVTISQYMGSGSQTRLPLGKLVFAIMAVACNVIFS

binding [1]: binds
binding [2]: binds
B1: Sag1p^21-352 (N-terminal domain of the α-agglutinin Sag1 protein with (His)6 tag, Xpress epitope and enterokinase cleavage site at the N-terminus) (protein, Saccharomyces cerevisiae, UniProt P20840 21-352, looked up, not shown: small tags and cut ends)
chain: NINDITFSNLEITPLTANKQPDQGWTATFDFSIADASSIREGDEFTLSMPHVYRIKLLNSSQTATISLADGTEAFKCYVSQQAAYLYENTTFTCTAQNDLSSYNTIDGSITFSLNFSDGGSSYEYELENAKFFKSGPMLVKLGNQMSDVVNFDPAAFTENVFHSGRSTGYGSFESYHLGMYCPNGYFLGGTEKIDYDSSNNNVDLDCSSVQVYSSNDFNDWWFPQSYNDTNADVTCFGSNLWITLDEKLYDGEMLWVNALQSLPANVNTIDHALEFQYTCLDTIANTTYATQFSTTREFIVYQGRNLGTASAKSSFISTTTTDLTSINTSAY
modifications: highly N-glycosylated

Source: US20050196743A1
